This data set in a line: Tissue distribution in SW female mice, intravenous (Example 1). Type of data set: in vivo. The settings on record: mouse, brain, 25 mg/kg, second experiment, with negative control atenolol, read-out: brain concentration as % of plasma concentration. The procedure: Plasma samples were prepared by combining 50 μL plasma+50 μL 1% dithiothreitol (DTT)+150 μL CH3CN (0.1% HCOOH), centrifuged at 10,000 rpm×5 min; 150 μL supernatant+90 μL H2O. Tissue samples were prepared by homogenizing a weighed tissue sample in phosphor-buffered saline (PBS, ×1)+1% DTT (×1)+CH3CN (0.1% HCOOH) (×3)), centrifuged at 10,000 rpm×5 min; 150 μL supernatant+90 μL H2O. […] The running time was 15 min.

In the case of `CC(C)NCC(O)COc1ccc(CC(N)=O)cc1` (stereo not shown) [atenolol, reference compound], the Kp at 30 min worked out at 0.04.

The record behind these values is patent US8148426B2, “Bis(thio-hydrazide amides) for increasing Hsp70 expression” (Synta Pharmaceuticals Corp., priority 2004, dated 2012).
